Results deposited as PubChem BioAssay AID1259425 (University of Nebraska Medical Center, 2018)
The whole screen tested about 14,000 reagents; this is a random part of them. Not given: the time to read-out.

Test: 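Find knockdowns that reproduce the gene expression pattern seen when KSR1 is lost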 (primary screen)
Cells: HCT116 human colon cancer cells
Reagents: siRNA pool against human genes, 50 nM siRNA
Detection: 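After 50 nM siRNA pool, branched-DNA assay measures six marker transcripts per well, minus blank, normalised to the geometric mean of two housekeeping transcripts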
Scale: BNIP3L mRNA: higher = more BNIP3L transcript after knockdown; NDRG1 mRNA: higher = more NDRG1 transcript after knockdown; BNIP3 mRNA: higher = more BNIP3 transcript after knockdown; ALDOC mRNA: higher = more ALDOC transcript after knockdown; ACSL5 mRNA: higher = more ACSL5 transcript after knockdown

no.	target gene	PubChem SID	BNIP3L mRNA, set 1	NDRG1 mRNA, set 1	BNIP3 mRNA, set 1	ALDOC mRNA, set 1	ACSL5 mRNA, set 1
1	GPR22 (G protein-coupled receptor 22)	SID363996212	0.332	0.392	0.954	0.0581	0.195
2	GNAS (GNAS complex locus)	SID363991839	0.161	0.0847	0.337	0.0643	0.122
3	ATP1A4 (ATPase Na+/K+ transporting subunit alpha 4)	SID364004626	0.116	0.269	0.403	0.00921	0.0975
4	B4GALNT1 (beta-1,4-N-acetyl-galactosaminyltransferase 1)	SID363992738	0.098	0.121	0.426	0.0196	0.277
5	AOC3 (amine oxidase copper containing 3)	SID363994801	0.188	0.18	0.289	0.0694	0.1
6	GATAD2B (GATA zinc finger domain containing 2B)	SID364001786	0.154	0.099	0.384	0.00571	0.231
7	TRPS1 (transcriptional repressor GATA binding 1)	SID363998601	0.0969	0.0864	0.439	0.0205	0.146
8	FLT3LG (fms related receptor tyrosine kinase 3 ligand)	SID363992721	0.0882	0.101	0.295	0.0108	0.173
9	ACKR2 (atypical chemokine receptor 2)	SID363992580	0.396	0.506	0.923	0.0773	0.157
10	CARD18 (caspase recruitment domain family member 18)	SID364002140	0.115	0.128	0.27	0.0215	0.169
11	ZNF343 (zinc finger protein 343)	SID364002798	0.104	0.458	0.346	0.0184	0.384
12	COLEC12 (collectin subfamily member 12)	SID364003433	0.102	0.127	0.345	0.0345	0.246
13	ZNF576 (zinc finger protein 576)	SID364002799	0.0991	0.276	0.211	0.0452	0.176
14	DENND11 (DENN domain containing 11)	SID364005584	0.0656	0.225	0.318	0.0149	0.216
15	APOBEC3F (apolipoprotein B mRNA editing enzyme catalytic subunit 3F)	SID364004662	0.0484	0.0862	0.308	0.0153	0.0575
16	OTUD6B (OTU deubiquitinase 6B)	SID363999802	0.0446	0.323	0.151	0.0168	0.193
17	NME2 (NME/NM23 nucleoside diphosphate kinase 2)	SID363993684	0.059	0.14	0.339	0.00167	0.112
18	NKD2 (NKD inhibitor of Wnt signaling pathway 2)	SID364004328	0.152	0.296	0.307	0.0726	0.3
19	EFS (embryonal Fyn-associated substrate)	SID363996738	0.0588	0.05	0.27	0.0228	0.0998
20	FAHD2A (fumarylacetoacetate hydrolase domain containing 2A)	SID363999820	0.0429	0.0791	0.355	0.0215	0.167
21	FOXN3 (forkhead box N3)	SID363996121	0.0444	0.318	0.213	0.00291	0.255
22	FOXN3 (forkhead box N3)	SID364001135	0.235	0.489	0.971	0.0701	0.155
23	PSCA (prostate stem cell antigen)	SID363996563	0.207	0.316	0.4	0.021	0.401
24	ZNF16 (zinc finger protein 16)	SID363997707	0.0787	0.356	0.302	0.0502	0.258
25	SPCS1 (signal peptidase complex subunit 1)	SID363998567	0.146	0.146	0.322	0.03	0.0732
26	AGTR1 (angiotensin II receptor type 1)	SID363991984	0.211	0.37	0.597	0.0337	0.267
27	RB1 (RB transcriptional corepressor 1)	SID363991653	0.071	0.127	0.138	0.0323	0.109
28	CAMKK1 (calcium/calmodulin dependent protein kinase kinase 1)	SID364004809	0.208	0.347	0.531	0.0156	0.47
29	ACKR1 (atypical chemokine receptor 1 (Duffy blood group))	SID363993246	0.0774	0.14	0.261	0.0437	0.115
30	KIR2DL4	SID363993454	0.0675	0.131	0.293	0.0218	0.123
31	EZH2 (enhancer of zeste 2 polycomb repressive complex 2 subunit)	SID363995438	0.0811	0.347	0.403	0.0188	0.307
32	UGT2B11 (UDP glucuronosyltransferase family 2 member B11)	SID363992370	0.0502	0.0447	0.301	0.0307	0.0799
33	DNASE1L2 (deoxyribonuclease 1 like 2)	SID363992646	0.0492	0.187	0.272	0.0172	0.118
34	RPL18A (ribosomal protein L18a)	SID363992263	0.595	0.331	0.632	0.0334	0.154

Targets above whose gene name begins with N or n:
target gene	PubChem SID	BNIP3L mRNA, set 1	NDRG1 mRNA, set 1	BNIP3 mRNA, set 1	ALDOC mRNA, set 1	ACSL5 mRNA, set 1
NME2 (NME/NM23 nucleoside diphosphate kinase 2)	SID363993684	0.059	0.14	0.339	0.00167	0.112
NKD2 (NKD inhibitor of Wnt signaling pathway 2)	SID364004328	0.152	0.296	0.307	0.0726	0.3
